The values that follow come from doi:10.1101/777771.

Chains of the proteins cited; added tags and fusions are not shown.
UniProt Q13263: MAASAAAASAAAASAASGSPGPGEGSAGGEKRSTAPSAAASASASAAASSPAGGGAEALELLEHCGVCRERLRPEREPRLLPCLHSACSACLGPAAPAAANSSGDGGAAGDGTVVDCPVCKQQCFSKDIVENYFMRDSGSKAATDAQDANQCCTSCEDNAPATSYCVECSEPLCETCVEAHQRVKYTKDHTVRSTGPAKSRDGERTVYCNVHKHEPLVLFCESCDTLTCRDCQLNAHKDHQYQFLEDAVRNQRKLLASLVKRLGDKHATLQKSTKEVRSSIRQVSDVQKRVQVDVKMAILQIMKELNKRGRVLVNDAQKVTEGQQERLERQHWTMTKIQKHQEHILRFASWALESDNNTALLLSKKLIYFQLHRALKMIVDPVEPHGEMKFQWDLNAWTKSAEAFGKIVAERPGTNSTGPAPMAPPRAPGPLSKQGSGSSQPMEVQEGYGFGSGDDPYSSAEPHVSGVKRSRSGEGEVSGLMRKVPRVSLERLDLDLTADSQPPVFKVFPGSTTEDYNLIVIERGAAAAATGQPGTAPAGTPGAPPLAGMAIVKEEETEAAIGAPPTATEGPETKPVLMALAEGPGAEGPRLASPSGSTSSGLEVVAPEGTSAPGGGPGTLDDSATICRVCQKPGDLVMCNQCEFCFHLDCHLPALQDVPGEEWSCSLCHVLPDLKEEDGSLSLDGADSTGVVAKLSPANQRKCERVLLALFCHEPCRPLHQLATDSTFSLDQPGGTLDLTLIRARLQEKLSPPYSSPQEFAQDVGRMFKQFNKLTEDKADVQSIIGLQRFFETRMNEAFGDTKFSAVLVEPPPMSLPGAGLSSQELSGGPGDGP
UniProt P50750: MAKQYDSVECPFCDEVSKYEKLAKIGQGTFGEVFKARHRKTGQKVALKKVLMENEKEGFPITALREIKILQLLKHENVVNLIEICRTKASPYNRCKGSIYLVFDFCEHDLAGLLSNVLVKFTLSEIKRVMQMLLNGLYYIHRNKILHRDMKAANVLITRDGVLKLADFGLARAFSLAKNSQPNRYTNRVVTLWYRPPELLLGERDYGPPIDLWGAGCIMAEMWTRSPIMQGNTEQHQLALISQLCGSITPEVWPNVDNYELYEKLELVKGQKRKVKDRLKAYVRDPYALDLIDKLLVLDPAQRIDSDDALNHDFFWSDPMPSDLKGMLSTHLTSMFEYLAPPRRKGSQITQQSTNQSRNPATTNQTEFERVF
UniProt O94992: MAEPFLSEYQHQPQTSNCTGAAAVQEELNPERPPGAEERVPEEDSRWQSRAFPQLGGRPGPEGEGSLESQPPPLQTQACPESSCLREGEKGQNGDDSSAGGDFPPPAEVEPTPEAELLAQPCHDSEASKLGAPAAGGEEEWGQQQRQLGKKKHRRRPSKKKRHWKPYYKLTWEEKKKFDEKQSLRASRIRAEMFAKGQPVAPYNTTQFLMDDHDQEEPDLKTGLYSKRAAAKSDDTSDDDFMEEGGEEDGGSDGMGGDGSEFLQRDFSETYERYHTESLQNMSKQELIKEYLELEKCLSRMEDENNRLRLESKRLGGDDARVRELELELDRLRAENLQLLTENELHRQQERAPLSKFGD

These are yes or no findings as the source states them, for the method shown. In cells and extracts the contact can be indirect. A yes stands for co-enrichment or nearness to the bait. Other partners may have been found.

The experiment deals with BioID2-TRIM28 (UniProt Q13263). Nature of the experiment: proximity labelling.

On to CDK9 (from UniProt P50750 1-372), for which the binding result is recorded as “binds”.

As for HEXIM1 (from UniProt O94992 1-359), the binding result is listed as “binds”.
